Reference: PubChem BioAssay AID2417 (National Center for Advancing Translational Sciences (NCATS), 2010)
About 4,300 (3.1%) of roughly 140,000 compounds were called active. This list was built around the results that the source calls inconclusive (neither active nor inactive); the mix of calls is not that of the screen.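 Rule for the calls: active = readout at or below -70, meaning at least 70% loss of cells showing the perinucleolar compartment, a nuclear body marking cancer cells; inconclusive = readout between -30 and a set limit; inactive = the rest.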

assay: High Content Assay for Compounds that inhibit the Assembly of the Perinucleolar Compartment; conditions: PC3M PTB-GFP, PNC prevalence imaging, 16 h; at 10 µM; active compounds read low;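 note: plate controls were DMSO wells for no effect and camptothecin positive control wells for full effect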
Method in brief: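 PC3M cells stably expressing PTB-GFP, 750–1000 cells/well, treated 16 h at 37 °C with compound (23 nl of library stock), in duplicate. After paraformaldehyde fixation and Hoechst stain, imaged at 20x; PNC prevalence scored by image analysis.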

SMILES	activity change (PNC), negative = inhibition
Cc1cccc(NC(=O)c2ccc(C3SCC(=O)N3CCc3ccccc3)cc2)c1C (stereo unspecified)	inactive: -3.36%
O=C(O)C1C2CCC(C2)C1C(=O)Nc1cc(F)ccc1F (stereo unspecified)	inconclusive: -44.5%
COc1cc(C(Nc2ccccn2)c2ccc3ccc(C)nc3c2O)cc(OC)c1O (stereo unspecified)	inactive: -25.8%
COc1ccc2[nH]c(=O)c(CN(CCc3cccc(C)c3)C(C)=O)cc2c1	inconclusive: -43.9%
O=C(O)CCCn1nc(C(F)(F)F)c2c1CCCCC2	active: -91.6%
COCCNC(=O)c1c[nH]c2cc(OC)c(OC)cc2c1=O	inconclusive: -48.4%
CC(C)C[C@H](NC(=O)OC(C)(C)C)c1nnc(SCc2cccc(F)c2)o1	inconclusive: -31.2%
COc1cccc(C2CC(C(F)(F)F)n3ncc(C(=O)O)c3N2)c1 (stereo unspecified)	inconclusive: -44.8%
CCOc1ccc(C(=O)N2CCN(c3cccc(C)c3C)CC2)cc1	inconclusive: -55.5%
CC(=O)NS(=O)(=O)c1ccc(NC(=O)CN2C(=O)C3C4C=CC(C4)C3C2=O)cc1 (stereo unspecified)	inconclusive: -78%
COC(=O)C1=C(NC(=O)c2cccc(OC)c2)CCS1	inconclusive: -60.1%
NC(=O)C1CCN(C(=O)c2cc3ccccn3n2)CC1	inconclusive: -77.5%
CC(NC(=O)c1ccc(Br)cc1)c1ccc2c(c1)CCCC2 (stereo unspecified)	inconclusive: -33.6%
CC1CCCC(NC(=O)c2ccc(CNc3c(N4CCCC4)c(=O)c3=O)cc2)C1C (stereo unspecified)	inactive: -15.4%
COc1ccc(NC(=O)NC2CCN(C(C)C)CC2)c(OC)c1	active: -80.4%
CC(C)C(=O)Nc1ccc(C(=O)NNC(=O)c2cccs2)cc1	inconclusive: -53.4%
COC(=O)c1ccccc1NC(=S)NC(=O)c1ccc(C)cc1	inconclusive: -30.3%
O=[N+]([O-])c1ccc2c(c1)ncn2-c1ccccc1	inconclusive: -33.8%
COc1ccc(NC(=O)Cn2c(=O)n(-c3ccc(OC)cc3OC)c(=O)c3c(C)c(C)sc32)cc1	inconclusive: -56.4%
COc1ccc(CNCC(O)COCc2cccs2)cc1 (stereo unspecified)	inactive: 16.2%
NNC(=O)C1CC1c1ccccc1 (stereo unspecified)	inactive: -17.3%
c1cnc(N2CCN(c3ncnc4c3oc3ccccc34)CC2)nc1	inactive: 19.9%
CC(=O)Nc1nnc(-c2ccc(Cl)s2)o1	inconclusive: -34.5%
Cc1ccsc1/C=N\NC(=O)Cn1nnc2ccccc21	inconclusive: -48.3%
Cc1ccc(SC(=O)COc2ccccc2C)cc1	active: -112%
COc1ccc(CNc2nc3ccccc3n2Cc2ccc(C)cc2)cc1OC	inconclusive: -46.4%

Part of the list above in order of heavy-atom count, ascending.
SMILES	activity change (PNC), negative = inhibition
NNC(=O)C1CC1c1ccccc1 (stereo unspecified)	inactive: -17.3%
O=C(O)CCCn1nc(C(F)(F)F)c2c1CCCCC2	active: -91.6%
O=C(O)C1C2CCC(C2)C1C(=O)Nc1cc(F)ccc1F (stereo unspecified)	inconclusive: -44.5%
